# From PubChem BioAssay (Tox21)
# By UniProt entry, the sequences of proteins in these tests, tags left out. Where a name states a change or a piece, a line headed by the entry shows the natural chain unless it says otherwise.
# UniProt P10635, whole entry, looked up: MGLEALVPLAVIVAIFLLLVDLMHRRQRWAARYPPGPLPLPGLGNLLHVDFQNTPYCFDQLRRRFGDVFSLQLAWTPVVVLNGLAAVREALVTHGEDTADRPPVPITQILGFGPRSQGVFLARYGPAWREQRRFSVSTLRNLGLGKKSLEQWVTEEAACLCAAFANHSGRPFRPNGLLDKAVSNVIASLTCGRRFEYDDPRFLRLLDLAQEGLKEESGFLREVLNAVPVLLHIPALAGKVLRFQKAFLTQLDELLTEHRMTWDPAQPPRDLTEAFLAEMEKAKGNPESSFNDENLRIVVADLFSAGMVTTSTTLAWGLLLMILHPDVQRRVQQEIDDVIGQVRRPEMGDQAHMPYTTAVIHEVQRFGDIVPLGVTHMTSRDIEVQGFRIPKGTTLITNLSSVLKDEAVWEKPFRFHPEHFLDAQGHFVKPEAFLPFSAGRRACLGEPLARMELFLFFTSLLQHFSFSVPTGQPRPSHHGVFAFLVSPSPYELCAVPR
# UniProt P11712, whole entry, looked up: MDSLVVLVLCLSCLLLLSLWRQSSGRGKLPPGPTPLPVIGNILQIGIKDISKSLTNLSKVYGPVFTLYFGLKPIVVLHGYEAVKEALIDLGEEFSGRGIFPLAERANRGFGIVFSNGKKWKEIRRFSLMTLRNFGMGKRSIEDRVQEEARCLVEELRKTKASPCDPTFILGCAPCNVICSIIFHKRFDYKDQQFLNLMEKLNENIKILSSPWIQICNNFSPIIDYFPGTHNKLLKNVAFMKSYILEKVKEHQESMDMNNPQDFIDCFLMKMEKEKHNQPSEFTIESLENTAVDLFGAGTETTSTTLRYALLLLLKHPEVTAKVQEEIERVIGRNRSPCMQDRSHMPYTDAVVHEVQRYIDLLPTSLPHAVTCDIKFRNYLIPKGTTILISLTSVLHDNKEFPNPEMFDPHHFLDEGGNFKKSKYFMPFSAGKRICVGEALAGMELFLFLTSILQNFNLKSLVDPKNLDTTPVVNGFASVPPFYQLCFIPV
# UniProt P05177, whole entry, looked up: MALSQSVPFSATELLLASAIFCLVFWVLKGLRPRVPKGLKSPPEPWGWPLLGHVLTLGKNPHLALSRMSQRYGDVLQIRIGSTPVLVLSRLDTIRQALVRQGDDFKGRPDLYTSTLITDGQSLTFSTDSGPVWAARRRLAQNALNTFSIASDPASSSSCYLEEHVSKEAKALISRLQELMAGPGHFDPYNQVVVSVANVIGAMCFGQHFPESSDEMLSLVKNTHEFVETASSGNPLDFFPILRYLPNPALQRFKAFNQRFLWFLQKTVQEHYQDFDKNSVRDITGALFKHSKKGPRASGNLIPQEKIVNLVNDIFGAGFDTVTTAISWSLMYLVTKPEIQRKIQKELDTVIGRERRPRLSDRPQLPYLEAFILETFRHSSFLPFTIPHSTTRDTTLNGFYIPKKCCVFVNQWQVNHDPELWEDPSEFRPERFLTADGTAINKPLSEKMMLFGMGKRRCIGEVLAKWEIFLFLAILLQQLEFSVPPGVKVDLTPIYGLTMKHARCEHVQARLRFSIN
# UniProt Q12809: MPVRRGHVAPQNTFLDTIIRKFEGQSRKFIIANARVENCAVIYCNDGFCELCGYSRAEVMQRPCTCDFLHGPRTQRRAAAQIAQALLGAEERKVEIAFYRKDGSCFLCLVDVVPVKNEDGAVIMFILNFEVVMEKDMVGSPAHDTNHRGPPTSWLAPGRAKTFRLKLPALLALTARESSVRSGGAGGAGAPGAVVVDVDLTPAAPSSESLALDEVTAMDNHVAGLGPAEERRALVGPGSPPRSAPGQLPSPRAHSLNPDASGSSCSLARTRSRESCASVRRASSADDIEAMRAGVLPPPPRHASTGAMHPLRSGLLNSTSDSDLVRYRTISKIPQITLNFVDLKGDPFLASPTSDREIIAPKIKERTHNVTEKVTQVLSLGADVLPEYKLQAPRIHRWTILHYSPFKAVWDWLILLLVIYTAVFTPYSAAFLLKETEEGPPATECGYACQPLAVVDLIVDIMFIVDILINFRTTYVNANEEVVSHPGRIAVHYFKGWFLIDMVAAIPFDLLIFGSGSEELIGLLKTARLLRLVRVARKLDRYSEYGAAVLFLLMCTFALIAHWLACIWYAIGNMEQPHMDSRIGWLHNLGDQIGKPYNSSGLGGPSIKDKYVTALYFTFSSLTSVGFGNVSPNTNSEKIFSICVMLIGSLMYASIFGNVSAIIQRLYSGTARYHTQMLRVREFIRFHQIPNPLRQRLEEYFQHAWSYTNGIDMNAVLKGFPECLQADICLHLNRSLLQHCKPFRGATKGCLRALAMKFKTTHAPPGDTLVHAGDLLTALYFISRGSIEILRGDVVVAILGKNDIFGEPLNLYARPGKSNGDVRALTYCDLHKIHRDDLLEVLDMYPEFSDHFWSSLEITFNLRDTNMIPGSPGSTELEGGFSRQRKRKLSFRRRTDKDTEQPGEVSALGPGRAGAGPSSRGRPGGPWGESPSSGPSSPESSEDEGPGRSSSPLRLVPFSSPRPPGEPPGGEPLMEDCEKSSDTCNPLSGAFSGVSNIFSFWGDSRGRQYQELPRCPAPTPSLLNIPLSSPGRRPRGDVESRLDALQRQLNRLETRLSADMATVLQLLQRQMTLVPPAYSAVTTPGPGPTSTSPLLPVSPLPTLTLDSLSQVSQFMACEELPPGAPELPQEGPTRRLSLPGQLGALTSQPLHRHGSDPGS
# UniProt P08684, whole entry, looked up: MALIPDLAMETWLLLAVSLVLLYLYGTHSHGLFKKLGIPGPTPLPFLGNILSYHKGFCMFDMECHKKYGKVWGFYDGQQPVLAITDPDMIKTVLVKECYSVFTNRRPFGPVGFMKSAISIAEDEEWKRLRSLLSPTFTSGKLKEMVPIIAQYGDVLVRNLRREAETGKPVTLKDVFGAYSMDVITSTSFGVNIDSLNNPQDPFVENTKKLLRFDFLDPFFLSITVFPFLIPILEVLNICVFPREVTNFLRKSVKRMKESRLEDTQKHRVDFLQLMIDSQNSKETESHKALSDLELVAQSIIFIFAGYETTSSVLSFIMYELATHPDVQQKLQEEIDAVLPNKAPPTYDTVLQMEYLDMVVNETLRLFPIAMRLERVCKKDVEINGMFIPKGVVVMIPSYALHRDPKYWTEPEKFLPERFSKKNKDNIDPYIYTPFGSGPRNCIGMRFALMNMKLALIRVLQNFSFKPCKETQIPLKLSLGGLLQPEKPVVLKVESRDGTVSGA
# UniProt P33261, whole entry, looked up: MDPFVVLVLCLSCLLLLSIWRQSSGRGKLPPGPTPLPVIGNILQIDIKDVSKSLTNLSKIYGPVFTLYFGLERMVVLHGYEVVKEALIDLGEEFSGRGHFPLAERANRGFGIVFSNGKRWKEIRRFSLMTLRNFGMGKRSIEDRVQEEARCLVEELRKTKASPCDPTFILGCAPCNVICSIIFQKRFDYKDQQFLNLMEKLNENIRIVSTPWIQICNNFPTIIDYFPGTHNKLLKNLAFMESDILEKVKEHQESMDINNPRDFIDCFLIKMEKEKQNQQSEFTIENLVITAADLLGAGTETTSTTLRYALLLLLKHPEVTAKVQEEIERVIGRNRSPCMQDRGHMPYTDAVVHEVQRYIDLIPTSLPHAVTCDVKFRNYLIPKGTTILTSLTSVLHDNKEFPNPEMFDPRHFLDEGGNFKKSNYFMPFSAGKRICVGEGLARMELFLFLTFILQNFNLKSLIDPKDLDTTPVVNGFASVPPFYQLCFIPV
# Values joined by “and” are separate entries in the source; they are usually repeats but may differ in a detail not shown here. Identical values can stand only once. This list was built around the results that the source calls inconclusive (neither active nor inactive); the mix of calls is not that of the screen. A potency beside an inconclusive call is a rough fit, not a confirmed value. Some compounds were tested as several samples or in several runs, with calls that do not always agree. Active and inactive are the calls of the source. Calls come from the whole dose curve; as a rule, active = well fitted curve in the direction sought with a large enough effect in the repeat runs; inconclusive = weak or mixed curves; inactive = no such curve, though single readings can be large; an effect the other way counts as inactive or inconclusive.
# Assays:
# [1] = biological target: Cytochrome P450 2D6 (Homo sapiens) (UniProt P10635); test: Cytochrome P450 Family 2 Subfamily D Member 6 (CYP2D6) small molecule antagonists: luciferase reporter qHTS assay (AID 1671196); conditions: P450-Glo CYP2D6 enzyme assay, luciferin luminescence, 1 h; series mostly up to 115 µM; note: nearly all actives have a fitted effect of over 50% in size
# Outline: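 CYP2D6 activity was followed as luminescence from its luciferin product after a 1 h NADPH-driven reaction at room temperature. Enzyme-substrate mix and compound were pre-incubated for 10 min, and the signal was read 20 min after adding detection reagent.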
# [2] = biological target: Cytochrome P450 2C9 (Homo sapiens) (UniProt P11712); test: Cytochrome P450 Family 2 Subfamily C Member 9 (CYP2C9) small molecule antagonists: luciferase reporter qHTS assay (AID 1671198); conditions: P450-Glo CYP2C9 enzyme assay, luciferin luminescence; series mostly up to 115 µM; note: nearly all actives have a fitted effect of over 50% in size
# Outline: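 P450-Glo proluciferin substrate with CYP2C9 enzyme; 10 min RT preincubation, then NADPH regeneration 1 h at 37C; luciferin detection reagent 20 min RT, luminescence in relative luminescence units.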
# [3] = biological target: Cytochrome P450 1A2 (Homo sapiens) (UniProt P05177); test: Cytochrome P450 Family 1 Subfamily A Member 2 (CYP1A2) small molecule antagonists: luciferase reporter qHTS assay (AID 1671199); conditions: P450-Glo CYP1A2 enzyme, luciferin luminescence, 1 h; series mostly up to 115 µM; note: nearly all actives have a fitted effect of over 50% in size
# Outline: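 Luminescence from luciferin formed by CYP1A2 from a proluciferin substrate, read 20 min after detection reagent. Compound was pre-incubated 10 min with enzyme-substrate, and reaction started with NADPH regeneration solution for 1 h at room temperature; furafylline control.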
# [4] = biological target: Voltage-gated inwardly rectifying potassium channel KCNH2 (Homo sapiens) (UniProt Q12809); test: Human Ether-a-go-go-Related Gene (hERG) channel small molecule antagonists: fluorescence cell-based qHTS assay (AID 1671200); conditions: hERG-U2OS cells, FluxOR thallium flux fluorescence; series mostly up to 76.8 µM; note: nearly all actives have a fitted effect of over 50% in size
# Outline: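 Quantitative HTS in hERG-U2OS cells: thallium entry through the channel reports activity, read as continuous 480/540 nm fluorescence over 2 min after stimulus addition.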
# [5] = biological target: Cytochrome P450 3A4 (Homo sapiens) (UniProt P08684); test: Cytochrome P450 Family 3 Subfamily A Member 4 (CYP3A4) small molecule antagonists: luciferase reporter qHTS assay (AID 1671201); conditions: P450-Glo CYP3A4 enzyme, luciferin luminescence, 1 h; series mostly up to 115 µM; note: nearly all actives have a fitted effect of over 50% in size
# Outline: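 Inhibition of CYP3A4 is measured as loss of light: the enzyme converts a proluciferin substrate to luciferin, detected luminescently. Reaction ran 1 h at room temperature with NADPH regeneration after a 10 min compound preincubation.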
# [6] = biological target: Cytochrome P450 2C19 (Homo sapiens) (UniProt P33261); test: Cytochrome P450 Family 2 Subfamily C Member 19 (CYP2C19) small molecule antagonists: luciferase reporter qHTS assay (AID 1671197); conditions: P450-Glo CYP2C19 enzyme, luciferin luminescence, 1 h; series mostly up to 115 µM; note: nearly all actives have a fitted effect of over 65% in size
# Outline: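 First, compounds are pinned into enzyme-substrate mix and held 10 min at room temperature. Second, NADPH regeneration solution is added and plates incubate 1 h at 37C. Third, detection reagent is added and luminescence read after 20 min.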
# Potency is the fitted concentration of half-maximal effect.
smiles,measurement,setting,value
CCCC(=O)OC/C=C(\C)CCC=C(C)C,Potency,[1],inactive
same,Potency,[2],"inconclusive: 39.9 µM [inhibitor, partial curve]"
same,Potency,[3],"inconclusive: 39.9 µM [inhibitor, partial curve]"
same,Potency,[4],"inconclusive: 54.9 µM [inhibitor, single point]"
O=C(O)c1cn(C2CC2)c2cc(Cl)c(F)cc2c1=O,Potency,[1],inactive
same,Potency,[3],"inconclusive: 24.5 µM [inhibitor, partial curve]"
CCCCCCCCNC,Potency,[1],"inconclusive: 35.6 µM [inhibitor, partial curve]"
same,Potency,[2],"inconclusive: 71 µM [inhibitor, partial curve, poor fit]"
same,Potency,[3],inactive
CCNS(=O)(=O)c1ccc(C)cc1,Potency,[1],"inconclusive: 65.1 µM [inhibitor, partial curve]"
same,Potency,[3],active: 41.1 µM
Cc1cn([C@H]2C=C[C@@H](CO)O2)c(=O)[nH]c1=O,Potency,[1],"inconclusive: 56 µM [inhibitor, partial curve]"
same,Potency,[2],"inconclusive: 99.5 µM [inhibitor, partial curve, poor fit] and inactive"
same,Potency,[3],"inconclusive: 62.8 µM [inhibitor, partial curve, poor fit]"
O=S(=O)(O)c1cc(Cl)c(Cl)cc1Cl,Potency,[1],"inconclusive: 79.6 µM [inhibitor, partial curve, poor fit]"
same,Potency,[3],"inconclusive: 44.8 µM [inhibitor, partial curve, poor fit]"
N[C@@H](CCC(=O)O)C(=O)O,Potency,[1],"inconclusive: 31.7 µM [inhibitor, partial curve]"
same,Potency,[2],"inconclusive: 79.6 µM [inhibitor, partial curve, poor fit]"
same,Potency,[3],active: 39.9 µM
CCCC(=O)Nc1ccc(OCC(O)CNC(C)C)c(C(C)=O)c1 (configuration not stated),Potency,[1],"inconclusive: 34.7 µM [inhibitor, partial curve]"
same,Potency,[3],"inconclusive: 28.8 µM [inhibitor, partial curve]"
COc1ccc(CCC(=O)c2c(O)cc(O[C@@H]3O[C@H](CO)[C@@H](O)[C@H](O)[C@H]3O[C@@H]3O[C@@H](C)[C@H](O)[C@@H](O)[C@H]3O)cc2O)cc1O,Potency,[1],inactive
same,Potency,[2],active: 25.3 µM
same,Potency,[3],"inconclusive: 35.7 µM [inhibitor, partial curve]"
same,Potency,[5],"inconclusive: 35.7 µM [inhibitor, partial curve]"
Nc1ccc(S(=O)(=O)Nc2nccs2)cc1,Potency,[1],"inconclusive: 56.7 µM [inhibitor, partial curve] and inconclusive: 20 µM [inhibitor, full curve, poor fit]"
same,Potency,[2],"inconclusive: 3.99 µM [inhibitor, full curve, poor fit]"
same,Potency,[3],"inconclusive: 31.9 µM [inhibitor, partial curve] and inconclusive: 39.9 µM [inhibitor, partial curve] and inconclusive: 35.6 µM [inhibitor, partial curve]"
C[n+]1ccn(CCO)c1,Potency,[1],"inconclusive: 89.5 µM [inhibitor, partial curve, poor fit]"
same,Potency,[3],"inconclusive: 63.4 µM [inhibitor, partial curve, poor fit]"
CCNc1cccc(C)c1,Potency,[1],"inconclusive: 68.3 µM [inhibitor, partial curve]"
same,Potency,[2],"inconclusive: 68.3 µM [inhibitor, partial curve, poor fit] and inconclusive: 79.6 µM [inhibitor, single point]"
same,Potency,[3],"inconclusive: 60.8 µM [inhibitor, partial curve, poor fit]"
C=CC(=O)OCCOC1C2CCC1C1CC=CC12 (configuration not stated),Potency,[6],active: 19 µM
ClC(Cl)(Br)Br,Potency,[6],inactive
S=C([S-])NCCNC(=S)[S-].[Mn+2],Potency,[1],"inconclusive: 35.6 µM [inhibitor, partial curve]"
same,Potency,[5],"inconclusive: 89.4 µM [inhibitor, single point]"
C/C=C/c1ccc(OCC)c(O)c1,Potency,[1],"inconclusive: 71 µM [inhibitor, partial curve]"
same,Potency,[5],"inconclusive: 79.6 µM [inhibitor, partial curve, poor fit] and inconclusive: 63.3 µM [inhibitor, partial curve]"
CCN1CCCC1CN (configuration not stated),Potency,[6],"inconclusive: 34.7 µM [inhibitor, partial curve, poor fit]"
CN(C)Cc1cc(CN(C)C)c(O)c(CN(C)C)c1,Potency,[1],active: 79.6 µM and inactive
same,Potency,[3],"inconclusive: 70.9 µM [inhibitor, partial curve, poor fit]"
same,Potency,[5],"inconclusive: 79.6 µM [inhibitor, single point]"
OCC(O)c1ccccc1 (configuration not stated),Potency,[1],inactive
same,Potency,[3],"inconclusive: 31.7 µM [inhibitor, partial curve]"
same,Potency,[5],inactive
C=CS(=O)(=O)O,Potency,[1],"inconclusive: 57.1 µM [inhibitor, partial curve]"
same,Potency,[3],inactive
C=C(C)CS(=O)(=O)O,Potency,[6],inactive
COc1ccccc1N1CCN(CCCNc2cc(=O)n(C)c(=O)n2C)CC1,Potency,[6],inactive
O=c1cc(CO)occ1O,Potency,[1],inactive
same,Potency,[3],inactive
